PubChem BioAssay AID504808 – Drosophila RNAi Screening Center | 2011
Test: 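Fly genes required to hold E2F transcription in check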 (primary screen). System: Drosophila S2 cells. Knock-down reagent: long dsRNA against Drosophila genes. Read-out: 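Dual luciferase plate measurements; E2F-specific signal taken as firefly over Renilla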. Direction: E2F firefly: higher = more E2F reporter activity; Renilla normaliser: higher = more normaliser reporter signal. Active means: 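Called active if the normalised E2F reporter went up by over 50%; the cutoff is arbitrary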.
The screen tested about 21,000 reagents; shown is a random part of those that have a named target and a result. Of all reagents, 18 (0.084%) are marked active. 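Raw counts without plate normalisation, one of two replicates; the ratio scores behind the calls were not deposited.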 Unmarked entries are inactive. Reagents against one gene are numbered here. Reagent sequences are not shown. Not given: the amount of reagent, the time to read-out.

What did the screen give for ana3 (anastral spindle 3)?
E2F firefly, rep 1: 1.08e5; Renilla normaliser, rep 1: 4196

With CG18273 #1, what was measured?
E2F firefly, rep 1: 70807; Renilla normaliser, rep 1: 5548

For CG18273 #2, what does the deposit list?
E2F firefly, rep 1: 1994; Renilla normaliser, rep 1: 948

For CG2017, how do the results read?
E2F firefly, rep 1: 66527; Renilla normaliser, rep 1: 3518

Which result is listed for CG1801?
E2F firefly, rep 1: 1.30e5; Renilla normaliser, rep 1: 5772

What did the screen give for Parp16 (Poly(ADP-ribose) polymerase 16)?
E2F firefly, rep 1: 1.44e5; Renilla normaliser, rep 1: 5007

With Ir94a (Ionotropic receptor 94a), what does the deposit list?
E2F firefly, rep 1: 92352; Renilla normaliser, rep 1: 2437

With numb, how do the results read?
E2F firefly, rep 1: 91077; Renilla normaliser, rep 1: 4261

What is on record for Kua?
E2F firefly, rep 1: 1.01e5; Renilla normaliser, rep 1: 4202

For Hrb98DE (Heterogeneous nuclear ribonucleoprotein at 98DE), what was measured?
E2F firefly, rep 1: 1738; Renilla normaliser, rep 1: 920

What is on record for Cox17 (Cytochrome c oxidase copper chaperone COX17)?
E2F firefly, rep 1: 2.33e5; Renilla normaliser, rep 1: 6309

How did the screen score CG7656?
E2F firefly, rep 1: 81101; Renilla normaliser, rep 1: 3495

What is on record for Ntmt (N-terminal methyltransferase)?
E2F firefly, rep 1: 1.33e5; Renilla normaliser, rep 1: 4884

How did the screen score CG17930?
E2F firefly, rep 1: 68848; Renilla normaliser, rep 1: 3152

How did the screen score CadN (Cadherin-N)?
E2F firefly, rep 1: 89224; Renilla normaliser, rep 1: 3519

What is on record for CG15824?
E2F firefly, rep 1: 1.76e5; Renilla normaliser, rep 1: 5758

With CG34051, what was measured?
E2F firefly, rep 1: 78434; Renilla normaliser, rep 1: 3777

Which result is listed for RabX2?
E2F firefly, rep 1: 62162; Renilla normaliser, rep 1: 5295

With CG34112, how do the results read?
E2F firefly, rep 1: 1.42e5; Renilla normaliser, rep 1: 7082

What is on record for PolE4 (DNA polymerase epsilon subunit 4)?
E2F firefly, rep 1: 90410; Renilla normaliser, rep 1: 3790

What is on record for flw (flapwing) #1?
E2F firefly, rep 1: 44603; Renilla normaliser, rep 1: 4178

With flw (flapwing) #2, what does the deposit list?
E2F firefly, rep 1: 46211; Renilla normaliser, rep 1: 4715

What is on record for Ube3a (Ubiquitin protein ligase E3A)?
E2F firefly, rep 1: 69282; Renilla normaliser, rep 1: 3547

How did the screen score CG16743?
E2F firefly, rep 1: 1.27e5; Renilla normaliser, rep 1: 4590

For ppk18 (pickpocket 18), how do the results read?
E2F firefly, rep 1: 1.36e5; Renilla normaliser, rep 1: 4878

What is on record for Dok (Downstream of kinase)?
E2F firefly, rep 1: 58067; Renilla normaliser, rep 1: 4330

How did the screen score CG12964?
E2F firefly, rep 1: 87275; Renilla normaliser, rep 1: 3603

With Act79B (Actin 79B), how do the results read?
E2F firefly, rep 1: 1.22e5; Renilla normaliser, rep 1: 6443

With CG32808, how do the results read?
E2F firefly, rep 1: 86631; Renilla normaliser, rep 1: 2504

What is on record for S6k (Ribosomal protein S6 kinase)?
E2F firefly, rep 1: 93540; Renilla normaliser, rep 1: 3746

What is on record for CG13671?
E2F firefly, rep 1: 82569; Renilla normaliser, rep 1: 3152

With CG13700, what does the deposit list?
E2F firefly, rep 1: 1.61e5; Renilla normaliser, rep 1: 8668

What did the screen give for Skeletor (retired record) #1?
E2F firefly, rep 1: 1.19e5; Renilla normaliser, rep 1: 5563

With Skeletor (retired record) #2, how do the results read?
E2F firefly, rep 1: 76158; Renilla normaliser, rep 1: 259

For Spt20, how do the results read?
E2F firefly, rep 1: 82162; Renilla normaliser, rep 1: 5908

For cyc (cycle), what was measured?
E2F firefly, rep 1: 1.42e5; Renilla normaliser, rep 1: 7924
